According to paper PMC10923651:
These are yes or no findings as the source states them, for the method shown. Binding seen in cells or lysates may run through a third protein. Some results given as binding are weak or reduced against the parent protein; the word gives no strength.

Sequences of proteins named here, by UniProt entry; tags and fusion partners are left off.
UniProt A0A125YIH2: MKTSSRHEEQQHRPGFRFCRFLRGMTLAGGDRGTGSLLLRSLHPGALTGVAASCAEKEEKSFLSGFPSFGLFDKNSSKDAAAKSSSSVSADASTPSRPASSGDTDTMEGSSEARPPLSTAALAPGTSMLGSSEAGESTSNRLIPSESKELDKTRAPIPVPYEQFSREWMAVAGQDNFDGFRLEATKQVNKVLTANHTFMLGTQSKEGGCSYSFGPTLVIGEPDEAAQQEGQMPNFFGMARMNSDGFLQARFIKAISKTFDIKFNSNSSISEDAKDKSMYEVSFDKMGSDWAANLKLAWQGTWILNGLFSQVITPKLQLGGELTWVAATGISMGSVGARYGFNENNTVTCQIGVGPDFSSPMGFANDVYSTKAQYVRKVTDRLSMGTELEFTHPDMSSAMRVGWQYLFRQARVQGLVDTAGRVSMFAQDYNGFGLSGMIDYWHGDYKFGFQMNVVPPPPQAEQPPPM
UniProt Q9BPL7: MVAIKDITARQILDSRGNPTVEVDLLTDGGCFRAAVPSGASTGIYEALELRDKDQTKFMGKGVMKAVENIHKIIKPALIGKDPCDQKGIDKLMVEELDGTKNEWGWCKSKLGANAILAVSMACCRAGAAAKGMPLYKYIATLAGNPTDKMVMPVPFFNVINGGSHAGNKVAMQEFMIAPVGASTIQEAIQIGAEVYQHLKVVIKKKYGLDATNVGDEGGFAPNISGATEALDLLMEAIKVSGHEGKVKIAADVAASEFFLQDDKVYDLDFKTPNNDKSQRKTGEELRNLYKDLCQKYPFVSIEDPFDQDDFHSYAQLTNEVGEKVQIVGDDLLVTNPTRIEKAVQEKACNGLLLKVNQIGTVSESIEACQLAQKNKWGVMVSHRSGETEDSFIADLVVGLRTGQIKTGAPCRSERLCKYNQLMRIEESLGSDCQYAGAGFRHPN

Experiments:
[1] = target: HA-tagged TgNup302 (Toxoplasma gondii); test: co-IP; anti-HA magnetic beads; full cell lysate of 4 × 10^8 to 2 × 10^9 parasites in 2% DDM/PBS/proteinase inhibitor, 16–24 h at 4°C, washes in PBS; fractions analysed by Western blot
[2] = target: N-terminally HA-tagged TgNup503 (Toxoplasma gondii) (UniProt S8GIN8); test: as above

Substance | binding [1] | binding [2]
TgTom40 (from UniProt A0A125YIH2 1-466) | binds | binds
TgENO2 (from UniProt Q9BPL7 1-444) | – | no binding
